Results taken from doi:10.1101/2023.07.20.549453 (bioRxiv, 2023).
Results are given in words; binding and its absence hold for the method and conditions named. A result given as binding can be weak or reduced; the word gives no strength.

Amino acid sequences for entries named in this document (tags omitted). A change or cut given only in a name is not applied to a line headed by its entry.
UniProt Q00987: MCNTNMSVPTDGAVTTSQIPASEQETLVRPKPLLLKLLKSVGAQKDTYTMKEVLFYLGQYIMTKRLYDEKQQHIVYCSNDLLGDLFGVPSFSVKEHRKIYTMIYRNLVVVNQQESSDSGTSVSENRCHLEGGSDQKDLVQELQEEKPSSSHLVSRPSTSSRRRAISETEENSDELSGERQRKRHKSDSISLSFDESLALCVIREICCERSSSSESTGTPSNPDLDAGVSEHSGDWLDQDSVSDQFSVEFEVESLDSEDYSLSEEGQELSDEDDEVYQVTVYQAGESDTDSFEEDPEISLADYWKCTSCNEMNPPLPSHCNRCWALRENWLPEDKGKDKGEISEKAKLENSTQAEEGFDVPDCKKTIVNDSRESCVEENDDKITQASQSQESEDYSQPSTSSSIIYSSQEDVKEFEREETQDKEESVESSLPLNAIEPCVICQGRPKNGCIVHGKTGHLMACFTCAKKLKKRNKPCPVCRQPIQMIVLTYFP

Biological target: T1, Human Dlk2 extracellular domain (Dlk2EC, residues 1-306) (human) (UniProt Q6UY11)
T1 sequence: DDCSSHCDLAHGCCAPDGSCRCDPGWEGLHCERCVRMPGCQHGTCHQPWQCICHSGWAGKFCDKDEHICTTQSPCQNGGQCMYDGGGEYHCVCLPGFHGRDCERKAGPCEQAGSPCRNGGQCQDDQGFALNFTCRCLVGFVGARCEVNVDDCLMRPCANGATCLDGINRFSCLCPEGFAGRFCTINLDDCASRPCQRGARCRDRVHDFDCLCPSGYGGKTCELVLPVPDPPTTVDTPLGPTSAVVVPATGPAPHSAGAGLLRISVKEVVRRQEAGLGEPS
Assay: SPR

Substance	binding
Human Mdm2 C-ter (residues 334-491) (from UniProt Q00987-11) (domain or fragment)	no binding (tested: 200 nM)
Human Mdm2 N-ter (residues 1-134) (from UniProt Q00987) (domain or fragment)	binds
Human Mdm2 central domain (residues 134-334) (from UniProt Q00987) (domain or fragment)	binds
